The target in this test is T1, GFP-OsATG8a (rice (Oryza sativa)) (UniProt Q69RC4).
T1 sequence: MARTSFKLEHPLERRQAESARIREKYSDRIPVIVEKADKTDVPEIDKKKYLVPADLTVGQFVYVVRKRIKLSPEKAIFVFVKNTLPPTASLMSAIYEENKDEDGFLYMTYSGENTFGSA
Description: affinity purification with mass spectrometry; GFP-Trap A beads with extracts of transgenic rice seedlings of the three GFP-OsATG8a lines, GFP control lines subtracted; seedlings in Hoagland's solution (mock) or with 150 mM NaCl for 1 h; 50 mM Tris-HCl pH 7.5, 150 mM NaCl, 20% glycerol, 1 mM MgCl2, NP-40; 4°C, 2-3 h.

Chains of the proteins cited; added tags and fusions are not shown. Lines headed by an entry give the natural chain unless they say otherwise; changes in a name come on top.
UniProt Q9ST27: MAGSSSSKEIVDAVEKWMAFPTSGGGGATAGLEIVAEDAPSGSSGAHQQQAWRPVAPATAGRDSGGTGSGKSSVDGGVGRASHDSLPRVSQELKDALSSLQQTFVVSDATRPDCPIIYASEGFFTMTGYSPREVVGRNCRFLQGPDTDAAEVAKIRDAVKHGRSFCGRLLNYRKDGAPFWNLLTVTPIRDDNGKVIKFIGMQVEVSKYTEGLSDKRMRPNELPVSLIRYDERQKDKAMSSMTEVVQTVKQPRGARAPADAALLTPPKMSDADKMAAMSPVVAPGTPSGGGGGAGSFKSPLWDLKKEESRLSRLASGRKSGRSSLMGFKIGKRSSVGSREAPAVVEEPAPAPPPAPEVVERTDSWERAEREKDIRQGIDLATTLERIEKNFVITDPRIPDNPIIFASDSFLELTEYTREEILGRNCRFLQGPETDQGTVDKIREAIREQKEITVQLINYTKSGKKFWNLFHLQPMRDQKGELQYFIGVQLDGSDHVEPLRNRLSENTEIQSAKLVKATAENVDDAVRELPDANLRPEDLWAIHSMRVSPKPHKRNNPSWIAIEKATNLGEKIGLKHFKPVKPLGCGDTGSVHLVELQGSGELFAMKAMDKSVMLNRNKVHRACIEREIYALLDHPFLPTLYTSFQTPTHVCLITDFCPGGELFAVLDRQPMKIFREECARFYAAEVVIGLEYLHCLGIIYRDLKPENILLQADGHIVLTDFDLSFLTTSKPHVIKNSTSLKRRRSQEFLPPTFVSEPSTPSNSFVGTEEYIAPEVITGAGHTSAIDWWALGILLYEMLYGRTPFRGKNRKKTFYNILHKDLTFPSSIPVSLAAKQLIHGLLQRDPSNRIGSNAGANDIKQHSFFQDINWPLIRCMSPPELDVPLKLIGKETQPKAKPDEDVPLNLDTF
UniProt Q0JBY9: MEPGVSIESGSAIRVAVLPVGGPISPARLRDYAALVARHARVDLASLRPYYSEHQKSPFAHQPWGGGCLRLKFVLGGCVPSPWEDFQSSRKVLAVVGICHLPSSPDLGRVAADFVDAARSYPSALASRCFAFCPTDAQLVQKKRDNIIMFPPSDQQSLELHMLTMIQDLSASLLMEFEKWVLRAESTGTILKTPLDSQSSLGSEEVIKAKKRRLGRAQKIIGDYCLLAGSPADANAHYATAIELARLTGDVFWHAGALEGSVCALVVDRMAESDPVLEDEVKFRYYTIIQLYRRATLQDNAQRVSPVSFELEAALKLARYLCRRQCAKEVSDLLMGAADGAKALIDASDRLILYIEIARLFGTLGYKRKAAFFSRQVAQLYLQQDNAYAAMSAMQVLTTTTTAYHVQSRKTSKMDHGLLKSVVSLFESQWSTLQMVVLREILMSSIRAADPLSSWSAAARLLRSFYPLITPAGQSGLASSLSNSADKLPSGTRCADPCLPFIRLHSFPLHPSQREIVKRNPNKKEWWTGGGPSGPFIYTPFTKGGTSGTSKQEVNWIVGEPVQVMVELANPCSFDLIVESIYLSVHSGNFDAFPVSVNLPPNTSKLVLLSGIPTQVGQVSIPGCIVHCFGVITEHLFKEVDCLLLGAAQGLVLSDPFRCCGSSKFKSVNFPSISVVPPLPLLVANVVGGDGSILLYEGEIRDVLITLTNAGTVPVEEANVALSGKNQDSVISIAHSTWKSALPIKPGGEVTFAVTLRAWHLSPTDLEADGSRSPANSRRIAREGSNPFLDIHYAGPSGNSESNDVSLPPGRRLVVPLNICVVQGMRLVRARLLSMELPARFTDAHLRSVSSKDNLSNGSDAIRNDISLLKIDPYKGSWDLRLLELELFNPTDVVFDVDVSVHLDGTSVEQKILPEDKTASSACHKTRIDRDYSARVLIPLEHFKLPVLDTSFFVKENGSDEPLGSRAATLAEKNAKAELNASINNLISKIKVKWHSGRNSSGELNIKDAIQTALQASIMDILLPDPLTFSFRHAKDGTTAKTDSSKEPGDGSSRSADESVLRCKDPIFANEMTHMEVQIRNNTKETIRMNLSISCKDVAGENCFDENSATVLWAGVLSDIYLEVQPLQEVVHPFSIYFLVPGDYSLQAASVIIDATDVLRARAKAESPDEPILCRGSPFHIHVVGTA

From paper PMC9083259 come the findings set out here.

No constants are given. Whether binding was seen depends on the method and setting. In cells and extracts the contact can be indirect. Here binding means that the protein was enriched with, or labelled near, the bait; the list need not be complete. Sequences can lack the tags named with a protein.

“ABC1K10A (rice (endogenous in rice seedlings))”: the binding entry is listed as “binds”.
On to “ADH1 (rice (endogenous in rice seedlings))”, for which the binding entry is listed as “binds”.
The entry for “ATB’GAMMA (rice (endogenous in rice seedlings))” is “binds”.
In the case of “CLASP (rice (endogenous in rice seedlings))” it was “binds”.
In the case of “Casein kinase 1 (rice (endogenous in rice seedlings))”, the binding entry is recorded as “binds”.
Take “EXO70A1 (rice (endogenous in rice seedlings))”: the binding entry is “binds”.
In the case of “FIERY1/HOS2 (rice (endogenous in rice seedlings))” it was “binds”; in that of “Guanosine nucleotide diphosphate dissociation inhibitor GDI1 (rice (endogenous in rice seedlings))”, “binds”; in that of “LECRK-IV.1 (rice (endogenous in rice seedlings))”, “binds”.
The entry for “P-ATPase AHA6 (rice (endogenous in rice seedlings))” is “binds”; for PHOT2 (from UniProt Q9ST27) it is “binds”.
The entry for “PUP1 (rice (endogenous in rice seedlings))” is “binds”.
Turning to “PUP3 (rice (endogenous in rice seedlings))”, the binding entry is “binds”.
The entry for “RPM1/RPS3 (rice (endogenous in rice seedlings))” is “binds”.
The entry for “Rab2 (rice (endogenous in rice seedlings))” is “binds”.
In the case of “SAD2 (rice (endogenous in rice seedlings))” it was “binds”; in that of “SEC13 (rice (endogenous in rice seedlings))”, “binds”; in that of “SEC24 (rice (endogenous in rice seedlings))”, “binds”.
In the case of “SH3P2 (rice (endogenous in rice seedlings))”, the binding entry is reported as “binds”.
The entry for “TOPP4 (rice (endogenous in rice seedlings))” is “binds”; for TRS120 (from UniProt Q0JBY9) it is “binds”.
For “UBP1B (rice (endogenous in rice seedlings))”, the binding entry is “binds”.
The entry for “Vacuolar H+-Pyrophosphatase AVP1 (rice (endogenous in rice seedlings))” is “binds”; for “catalytic subunit of the plant AMPK, SnRK1/KIN10 (rice (endogenous in rice seedlings))” it is “binds”; for “regulatory subunit of the plant AMPK, SnRK1 (rice (endogenous in rice seedlings))” it is “binds”.
In the case of “sodium transporter HKT1 (rice (endogenous in rice seedlings))” it was “binds”.
